Results published in article doi:10.1101/2025.01.09.632087.
No constants are given. Whether binding was seen depends on the method and setting. In cells and extracts the contact can be indirect. These calls come from enrichment with a bait or labelling near it, and not all partners need be listed. Where a sequence is shown, tags or fusion partners need not be part of it.

Amino acid sequences for entries named in this document (tags omitted). Residues count along the entry.
UniProt P11021, residues 19-654: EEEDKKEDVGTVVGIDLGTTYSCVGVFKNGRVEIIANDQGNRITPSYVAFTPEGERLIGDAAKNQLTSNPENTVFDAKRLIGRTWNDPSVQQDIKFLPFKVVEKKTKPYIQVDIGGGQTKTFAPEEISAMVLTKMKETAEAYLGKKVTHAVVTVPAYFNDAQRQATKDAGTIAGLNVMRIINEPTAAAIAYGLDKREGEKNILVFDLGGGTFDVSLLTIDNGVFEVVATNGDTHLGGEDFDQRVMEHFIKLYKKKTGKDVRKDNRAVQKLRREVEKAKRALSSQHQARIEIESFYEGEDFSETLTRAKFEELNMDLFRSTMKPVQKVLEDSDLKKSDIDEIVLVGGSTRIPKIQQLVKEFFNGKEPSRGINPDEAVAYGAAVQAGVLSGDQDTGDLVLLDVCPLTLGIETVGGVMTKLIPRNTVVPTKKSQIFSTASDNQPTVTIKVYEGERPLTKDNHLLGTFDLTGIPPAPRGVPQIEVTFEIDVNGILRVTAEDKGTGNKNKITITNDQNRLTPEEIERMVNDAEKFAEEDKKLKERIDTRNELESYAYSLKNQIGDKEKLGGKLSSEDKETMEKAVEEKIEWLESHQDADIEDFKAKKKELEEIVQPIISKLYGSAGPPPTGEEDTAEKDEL

How the values were obtained:
[1] = molecular target: T1, wt FICD with a C-terminal FLAG(3x)-tag (FICD-FLAG) (human) (UniProt Q9BVA6); assay: affinity purification with mass spectrometry
T1 sequence: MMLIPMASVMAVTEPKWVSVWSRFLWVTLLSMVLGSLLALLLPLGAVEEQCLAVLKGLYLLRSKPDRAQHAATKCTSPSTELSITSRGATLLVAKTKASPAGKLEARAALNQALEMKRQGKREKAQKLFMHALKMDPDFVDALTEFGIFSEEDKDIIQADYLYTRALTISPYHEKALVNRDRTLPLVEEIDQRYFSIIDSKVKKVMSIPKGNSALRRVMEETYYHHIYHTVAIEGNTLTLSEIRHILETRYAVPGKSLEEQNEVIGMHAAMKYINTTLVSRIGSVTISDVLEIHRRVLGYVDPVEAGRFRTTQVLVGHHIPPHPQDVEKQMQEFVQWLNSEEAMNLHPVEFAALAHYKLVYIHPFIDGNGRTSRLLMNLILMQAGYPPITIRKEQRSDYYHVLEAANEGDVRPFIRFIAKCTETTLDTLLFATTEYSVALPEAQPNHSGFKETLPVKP

[2] = molecular target: T2, full-length PLD3 with a C-terminal 3xFLAG-tag (PLD3-FLAG) (human) (UniProt Q8IV08); assay: affinity purification with mass spectrometry
T2 sequence: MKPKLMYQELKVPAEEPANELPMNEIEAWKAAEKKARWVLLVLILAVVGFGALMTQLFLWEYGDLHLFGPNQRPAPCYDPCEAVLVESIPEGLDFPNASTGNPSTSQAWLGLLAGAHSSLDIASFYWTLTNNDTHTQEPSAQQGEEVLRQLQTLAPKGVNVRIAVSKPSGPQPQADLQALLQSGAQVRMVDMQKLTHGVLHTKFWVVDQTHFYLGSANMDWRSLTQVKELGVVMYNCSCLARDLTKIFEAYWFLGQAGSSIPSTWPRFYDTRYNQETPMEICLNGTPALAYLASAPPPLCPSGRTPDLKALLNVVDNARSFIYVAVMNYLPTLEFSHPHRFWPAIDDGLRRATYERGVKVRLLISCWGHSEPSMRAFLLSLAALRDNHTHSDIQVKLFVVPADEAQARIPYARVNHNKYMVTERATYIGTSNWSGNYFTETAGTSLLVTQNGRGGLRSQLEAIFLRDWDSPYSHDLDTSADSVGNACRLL

With “heat shock protein family A member 5 (HSPA5) (from UniProt P11021 19-654)” the binding [1] was “binds” and the binding [2] was “binds”.

B1: wt PLD3 (without an affinity tag) (enzyme, UniProt Q8IV08 1-490)
chain: T2 sequence
B1 was tested, and the binding [1] was “binds”.

B2: wt FICD (protein adenylyltransferase FICD, without affinity tag) (enzyme, UniProt Q9BVA6 1-458)
chain: T1 sequence
B2 was tested, and the binding [2] was “binds”.
